Measurements taken from paper PMC6843132.

How the values were obtained:
[1] = tested on: AtNF-YA6 + AtNF-YB2 + AtNF-YC3; test: EMSA; settings: reduced affinity vs CAB2; 12 mM Tris-HCl pH 8.0, 50 mM NaCl, 50 mM KCl, 5 mM MgCl2, 0.5 mM EDTA, 12% glycerol, 0.2 mg/mL BSA, 2.5 mM DTT, 100 ng poly(dA:dT), 20 nM Cy5 probe, 30 C 30 min; recombinant protein; protein details: 6His,6His removed by thrombin; label: Cy5 5'
[2] = tested on: AtNF-YA6 + AtNF-YB2 + AtNF-YC3; test: competition EMSA; settings: competes, less than WT CAB2; 12 mM Tris-HCl pH 8.0, 50 mM NaCl, 50 mM KCl, 5 mM MgCl2, 0.5 mM EDTA, 12% glycerol, 0.2 mg/mL BSA, 2.5 mM DTT, 100 ng poly(dA:dT), 20 nM Cy5 probe, 30 C 30 min; recombinant protein; protein details: 6His,6His removed by thrombin

| Sequence | binding result [1] | binding result [2] |
| --- | --- | --- |
| GCACTCATCCAATCCTTTATGGAATCTTCTT (double strand) [FT -5.3 kb CCAAT 31 bp probe] | binds more weakly |  |
| GCACTCATCCAATCCTTTATGGAATCTTCTT (double strand) [FT CCAAT competitor 31 bp] |  | binds more weakly |

Weaker means in comparison with the reference protein, sequence or condition of that experiment.
